PubChem BioAssay AID1508597 | Cure First | 2020
Aim: 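Genes whose silencing sensitises or protects ovarian cancer cells against rucaparib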 (primary screen). Cells: human ovarian carcinoma lines grown from tumours: OCI-P5x (papillary serous) and OCI-C5x (clear cell). Reagents: siRNA pool against human genes, 1.25 pmol siRNA per well. Timing: 72 h or 96 h, depending on the cell culture. Treatment: rucaparib 20 µM (about IC30) or vehicle, present until read-out. Measured: 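ATP luminescence measured at 72 or 96 h according to the culture, then normalised and expressed as percent viability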. Reading the numbers: viability, normalised: higher = more viable cells remaining. Rule for the call: 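a well counts as a hit if its normalised viability is under 80 percent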. Meaning of the calls: active = viability under 80%; inactive = viability 80% or more.
In all, the deposit lists about 2,100 reagents; below is a random part of them. 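Calls flag viability under 80% in either arm, not effects specific to rucaparib; the reference for percent is not stated.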 Unmarked entries are inactive. The record does not give: the 100% reference.

gene symbol | rucaparib or vehicle | cell line | technical replicate | viability, normalised (%)
UHMK1 (GeneID 127933) | Rucaparib | OCI-C5x (clear cell) | 1 | 57.5 (active)
UHMK1 (GeneID 127933) | Rucaparib | OCI-C5x (clear cell) | 2 | 60.4 (active)
UHMK1 (GeneID 127933) | Rucaparib | OCI-C5x (clear cell) | 3 | 67.6 (active)
UHMK1 (GeneID 127933) | Rucaparib | OCI-P5x (serous) | 1 | 72.3 (active)
UHMK1 (GeneID 127933) | Rucaparib | OCI-P5x (serous) | 2 | 87.4
UHMK1 (GeneID 127933) | Rucaparib | OCI-P5x (serous) | 3 | 60.4 (active)
UHMK1 (GeneID 127933) | Vehicle | OCI-C5x (clear cell) | 1 | 59.6 (active)
UHMK1 (GeneID 127933) | Vehicle | OCI-C5x (clear cell) | 2 | 58.2 (active)
UHMK1 (GeneID 127933) | Vehicle | OCI-C5x (clear cell) | 3 | 76.3 (active)
UHMK1 (GeneID 127933) | Vehicle | OCI-P5x (serous) | 1 | 83.8
UHMK1 (GeneID 127933) | Vehicle | OCI-P5x (serous) | 2 | 76.8 (active)
UHMK1 (GeneID 127933) | Vehicle | OCI-P5x (serous) | 3 | 87.3
SIRT3 (GeneID 23410) | Rucaparib | OCI-C5x (clear cell) | 1 | 47.4 (active)
SIRT3 (GeneID 23410) | Rucaparib | OCI-C5x (clear cell) | 2 | 29.5 (active)
SIRT3 (GeneID 23410) | Rucaparib | OCI-C5x (clear cell) | 3 | 33.2 (active)
SIRT3 (GeneID 23410) | Rucaparib | OCI-P5x (serous) | 1 | 33.4 (active)
SIRT3 (GeneID 23410) | Rucaparib | OCI-P5x (serous) | 2 | 37.2 (active)
SIRT3 (GeneID 23410) | Rucaparib | OCI-P5x (serous) | 3 | 39.1 (active)
SIRT3 (GeneID 23410) | Vehicle | OCI-C5x (clear cell) | 1 | 30.2 (active)
SIRT3 (GeneID 23410) | Vehicle | OCI-C5x (clear cell) | 2 | 29.4 (active)
SIRT3 (GeneID 23410) | Vehicle | OCI-C5x (clear cell) | 3 | 45.7 (active)
SIRT3 (GeneID 23410) | Vehicle | OCI-P5x (serous) | 1 | 46.1 (active)
SIRT3 (GeneID 23410) | Vehicle | OCI-P5x (serous) | 2 | 47.8 (active)
SIRT3 (GeneID 23410) | Vehicle | OCI-P5x (serous) | 3 | 66.3 (active)
CDK18 (GeneID 5129) | Rucaparib | OCI-C5x (clear cell) | 1 | 55.8 (active)
CDK18 (GeneID 5129) | Rucaparib | OCI-C5x (clear cell) | 2 | 51.8 (active)
CDK18 (GeneID 5129) | Rucaparib | OCI-C5x (clear cell) | 3 | 54.8 (active)
CDK18 (GeneID 5129) | Rucaparib | OCI-P5x (serous) | 1 | 79 (active)
CDK18 (GeneID 5129) | Rucaparib | OCI-P5x (serous) | 2 | 103
CDK18 (GeneID 5129) | Rucaparib | OCI-P5x (serous) | 3 | 65.7 (active)
CDK18 (GeneID 5129) | Vehicle | OCI-C5x (clear cell) | 1 | 48.1 (active)
CDK18 (GeneID 5129) | Vehicle | OCI-C5x (clear cell) | 2 | 53.5 (active)
CDK18 (GeneID 5129) | Vehicle | OCI-C5x (clear cell) | 3 | 44.9 (active)
CDK18 (GeneID 5129) | Vehicle | OCI-P5x (serous) | 1 | 70.3 (active)
CDK18 (GeneID 5129) | Vehicle | OCI-P5x (serous) | 2 | 79.5 (active)
CDK18 (GeneID 5129) | Vehicle | OCI-P5x (serous) | 3 | 68.5 (active)

Single entries from above:
CDK18 (GeneID 5129), rucaparib or vehicle Vehicle, cell line OCI-C5x (clear cell), technical replicate 3, viability, normalised (%) = 44.9 (active)
Result for UHMK1 (GeneID 127933), rucaparib or vehicle Vehicle, cell line OCI-C5x (clear cell), technical replicate 1 under “viability, normalised (%)”: 59.6 (active)
For “viability, normalised (%)”, CDK18 (GeneID 5129), rucaparib or vehicle Vehicle, cell line OCI-P5x (serous), technical replicate 3 is entered as 68.5 (active)
For “viability, normalised (%)”, UHMK1 (GeneID 127933), rucaparib or vehicle Rucaparib, cell line OCI-C5x (clear cell), technical replicate 2 shows 60.4 (active)
For “viability, normalised (%)”, SIRT3 (GeneID 23410), rucaparib or vehicle Vehicle, cell line OCI-C5x (clear cell), technical replicate 3 shows 45.7 (active)
SIRT3 (GeneID 23410), rucaparib or vehicle Vehicle, cell line OCI-P5x (serous), technical replicate 2, viability, normalised (%): 47.8 (active)

Further records follow:
gene symbol | rucaparib or vehicle | cell line | technical replicate | viability, normalised (%)
MTF2 (GeneID 22823) | Rucaparib | OCI-C5x (clear cell) | 1 | 39.7 (active)
MTF2 (GeneID 22823) | Rucaparib | OCI-C5x (clear cell) | 2 | 53.6 (active)
MTF2 (GeneID 22823) | Rucaparib | OCI-C5x (clear cell) | 3 | 57.2 (active)
MTF2 (GeneID 22823) | Rucaparib | OCI-P5x (serous) | 1 | 65.7 (active)
MTF2 (GeneID 22823) | Rucaparib | OCI-P5x (serous) | 2 | 54.3 (active)
MTF2 (GeneID 22823) | Rucaparib | OCI-P5x (serous) | 3 | 75.7 (active)
MTF2 (GeneID 22823) | Vehicle | OCI-C5x (clear cell) | 1 | 49.2 (active)
MTF2 (GeneID 22823) | Vehicle | OCI-C5x (clear cell) | 2 | 62.4 (active)
MTF2 (GeneID 22823) | Vehicle | OCI-C5x (clear cell) | 3 | 59.2 (active)
MTF2 (GeneID 22823) | Vehicle | OCI-P5x (serous) | 1 | 63 (active)
MTF2 (GeneID 22823) | Vehicle | OCI-P5x (serous) | 2 | 61.7 (active)
MTF2 (GeneID 22823) | Vehicle | OCI-P5x (serous) | 3 | 69.2 (active)
ZFAT (GeneID 57623) | Rucaparib | OCI-C5x (clear cell) | 1 | 25.1 (active)
ZFAT (GeneID 57623) | Rucaparib | OCI-C5x (clear cell) | 2 | 25.3 (active)
ZFAT (GeneID 57623) | Rucaparib | OCI-C5x (clear cell) | 3 | 25.8 (active)
ZFAT (GeneID 57623) | Rucaparib | OCI-P5x (serous) | 1 | 57.4 (active)
ZFAT (GeneID 57623) | Rucaparib | OCI-P5x (serous) | 2 | 55.1 (active)
ZFAT (GeneID 57623) | Rucaparib | OCI-P5x (serous) | 3 | 51.4 (active)
ZFAT (GeneID 57623) | Vehicle | OCI-C5x (clear cell) | 1 | 24.2 (active)
ZFAT (GeneID 57623) | Vehicle | OCI-C5x (clear cell) | 2 | 21.4 (active)
ZFAT (GeneID 57623) | Vehicle | OCI-C5x (clear cell) | 3 | 17.3 (active)
ZFAT (GeneID 57623) | Vehicle | OCI-P5x (serous) | 1 | 59.3 (active)
ZFAT (GeneID 57623) | Vehicle | OCI-P5x (serous) | 2 | 70.9 (active)
ZFAT (GeneID 57623) | Vehicle | OCI-P5x (serous) | 3 | 66.9 (active)
STK25 (GeneID 10494) | Rucaparib | OCI-C5x (clear cell) | 1 | 35.1 (active)
STK25 (GeneID 10494) | Rucaparib | OCI-C5x (clear cell) | 2 | 49.6 (active)
STK25 (GeneID 10494) | Rucaparib | OCI-C5x (clear cell) | 3 | 68.3 (active)
STK25 (GeneID 10494) | Rucaparib | OCI-P5x (serous) | 1 | 71.3 (active)
STK25 (GeneID 10494) | Rucaparib | OCI-P5x (serous) | 2 | 87.4
STK25 (GeneID 10494) | Rucaparib | OCI-P5x (serous) | 3 | 78.8 (active)
STK25 (GeneID 10494) | Vehicle | OCI-C5x (clear cell) | 1 | 87.5
STK25 (GeneID 10494) | Vehicle | OCI-C5x (clear cell) | 2 | 38 (active)
STK25 (GeneID 10494) | Vehicle | OCI-C5x (clear cell) | 3 | 50 (active)
STK25 (GeneID 10494) | Vehicle | OCI-P5x (serous) | 1 | 74.6 (active)
STK25 (GeneID 10494) | Vehicle | OCI-P5x (serous) | 2 | 67.9 (active)
STK25 (GeneID 10494) | Vehicle | OCI-P5x (serous) | 3 | 69.1 (active)
OXSR1 (GeneID 9943) | Rucaparib | OCI-C5x (clear cell) | 1 | 50 (active)
OXSR1 (GeneID 9943) | Rucaparib | OCI-C5x (clear cell) | 2 | 50.1 (active)
OXSR1 (GeneID 9943) | Rucaparib | OCI-C5x (clear cell) | 3 | 52.4 (active)
OXSR1 (GeneID 9943) | Rucaparib | OCI-P5x (serous) | 1 | 81.2
OXSR1 (GeneID 9943) | Rucaparib | OCI-P5x (serous) | 2 | 82.1
OXSR1 (GeneID 9943) | Rucaparib | OCI-P5x (serous) | 3 | 79.3 (active)
OXSR1 (GeneID 9943) | Vehicle | OCI-C5x (clear cell) | 1 | 75.6 (active)
OXSR1 (GeneID 9943) | Vehicle | OCI-C5x (clear cell) | 2 | 67.7 (active)
OXSR1 (GeneID 9943) | Vehicle | OCI-C5x (clear cell) | 3 | 50.2 (active)
OXSR1 (GeneID 9943) | Vehicle | OCI-P5x (serous) | 1 | 75.4 (active)
OXSR1 (GeneID 9943) | Vehicle | OCI-P5x (serous) | 2 | 74.9 (active)
OXSR1 (GeneID 9943) | Vehicle | OCI-P5x (serous) | 3 | 67.4 (active)
